{"source": "paper PMC7655927", "key": {"[1]": {"target": "C9 (human (endogenous in normal human serum)) (UniProt P02748)", "test": "non-reducing SDS-PAGE and Western blot of C9 polymers in cell lysates; A549 cells incubated with sublytic anti-human HLA-ABC (1:1,000) as activator of the classical pathway, then 5% NHS pre-incubated with different amounts of ZIKV E; lysates on non-reducing gel; anti-C9 neo-epitope WU 13-15"}, "[2]": {"target": "C9 (human (endogenous in normal human serum)) (UniProt P02748)", "test": "non-reducing SDS-PAGE and Western blot of C9 polymers in cell lysates; A549 cells incubated with purified C5b6 (5 µg, 2 h, 37°C), then 5% NHS as source of C7 to C9, pre-incubated without or with 12.5 to 50 µg ZIKV E; lysates on 8% gel under non-reducing conditions; anti-C9 neo-epitope WU 13-15"}}, "note": "No constants are given. Whether binding was seen depends on the method and setting. Some entries that bind do so weakly or less than the wild type."}
{"substance": "C9 (from UniProt P02748 22-559)", "values": [{"measurement": "binding", "setting": "[1]", "result": "binds"}, {"measurement": "binding", "setting": "[2]", "result": "binds"}]}
